Experimental data as given in the supplement of paper PMC9938546.
Where a name gives a salt, the structure may show the parent alone. Some of the results follow. Plates or batches differ in their baseline, so values are only roughly comparable.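 HCT116-GFP is a human colorectal cancer cell line that carries a KRAS mutation, is microsatellite-unstable and always makes green fluorescent protein; the immune cells came from healthy donors. Live-cell imaging of the green signal stood in for cancer cell survival, and activated immune cells alone cut survival to about half.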

System: HCT116-GFP
Experiment: HCT116-GFP viability (GFP intensity) relative to untreated HCT116-GFP monoculture control, co-culture with activated PBMCs; higher = less cancer cell killing
Conditions: culture: co-culture with anti-CD3/IL2 activated PBMCs 1:1; 10 µM; 72 h

Structure (SMILES)	HCT116-GFP viability
COC1=CC(=O)C[C@@H](C)[C@]12Oc1c(Cl)c(OC)cc(OC)c1C2=O [Griseofulvin]	10.4%
COC(=O)Nc1nc2cc(C(=O)c3ccc(F)cc3)ccc2[nH]1 [Flubendazol]	7.7%
CC(C)(C)NC(=O)[C@@H]1CN(Cc2cccnc2)CCN1C[C@@H](O)C[C@@H](Cc1ccccc1)C(=O)N[C@H]1c2ccccc2C[C@H]1O [Indinavir sulfate]	16.8%
O=C(O[C@@H]1C[C@@H]2C[C@H]3C[C@H](C1)N2CC3=O)c1c[nH]c2ccccc12 [Dolasetron mesilate]	88.2%
CC(C)(C)NCC(O)c1ccc(O)c(CO)c1 (centres undefined) [Salbutamol]	44%
Cc1c(OCC(F)(F)F)ccnc1C[S+]([O-])c1nc2ccccc2[nH]1 (centres undefined) [Lansoprazole]	44.2%
Cn1c(=O)c2c(ncn2C)n(C)c1=O [Caffeine]	37.1%
CCc1nn(CCCN2CCN(c3cccc(Cl)c3)CC2)c(=O)n1CCOc1ccccc1 [Nefazodone hydrochloride]	58%
CCCNC(C)(C)COC(=O)c1ccccc1 [Meprylcaine hydrochloride]	47.8%
CCC1(C)CC(=O)NC1=O (centres undefined) [Ethosuximide]	37.2%
NC1CCN(c2c(F)cc3c(=O)c(C(=O)O)cn(C4CC4)c3c2Cl)C1 (centres undefined) [Clinafloxacin]	76.8%
C[N+](C)(CCOc1ccccc1)Cc1ccccc1.O=C([O-])c1cc2ccccc2cc1O [Bephenium hydroxynaphthoate]	83.3%
CC(NCCc1ccc(O)cc1)C(O)c1ccc(O)cc1 (centres undefined) [Ritodrine hydrochloride]	48.4%
CCCc1nn(C)c2c(=O)[nH]c(-c3cc(S(=O)(=O)N4CCN(C)CC4)ccc3OCC)nc12 [Sildenafil]	40.2%
CCC(C)(C)C(=O)O[C@H]1C[C@@H](C)C=C2C=C[C@H](C)[C@H](CC[C@@H]3C[C@@H](O)CC(=O)O3)[C@H]21 [Simvastatin]	48.3%
CC(=O)Oc1ccc(C(c2ccc(OC(C)=O)cc2)c2ccccn2)cc1 [Bisacodyl]	31.3%
Nc1ccc(C(=O)O)c(O)c1 [4-aminosalicylic acid]	9.65%
O=C1Nc2ccc(Cl)cc2[C@@](C#CC2CC2)(C(F)(F)F)O1 [Efavirenz]	47.3%
CC[N+](C)(CC)CCC[n+]1c(-c2ccccc2)c2cc(N)ccc2c2ccc(N)cc21 [Propidium iodide]	62.7%
O=C(O)c1ccccc1Nc1cccc(C(F)(F)F)c1 [Flufenamic acid]	58.7%

Reprinted at random: 2 compounds from above.
Structure (SMILES)	HCT116-GFP viability
CC(C)(C)NCC(O)c1ccc(O)c(CO)c1 (centres undefined) [Salbutamol]	44%
CC(C)(C)NC(=O)[C@@H]1CN(Cc2cccnc2)CCN1C[C@@H](O)C[C@@H](Cc1ccccc1)C(=O)N[C@H]1c2ccccc2C[C@H]1O [Indinavir sulfate]	16.8%

Next structures

Structure (SMILES)	HCT116-GFP viability
Clc1ccc(C(c2ccccc2Cl)C(Cl)Cl)cc1 (centres undefined) [Mitotane]	24.1%
O=C1O[C@H]([C@@H](O)CO)C(O)=C1O [Ascorbic acid]	53%
Nc1ccc(/N=N/c2ccccc2)c(N)n1 [Phenazopyridine hydrochloride]	63.6%
CN(C)CCOC(=O)C(c1ccccc1)C1(O)CCCC1 (centres undefined) [Cyclopentolate hydrochloride]	45.9%
CCC(=O)O[C@]1(C(=O)SCF)[C@H](C)C[C@H]2[C@@H]3C[C@H](F)C4=CC(=O)C=C[C@]4(C)[C@@]3(F)[C@@H](O)C[C@@]21C [Fluticasone propionate]	66.9%
OCCN1CCN(CC/C=C2/c3ccccc3Sc3ccc(Cl)cc32)CC1 [Zuclopenthixol dihydrochloride]	41.6%
Nc1nc(/C(=C/CC(=O)O)C(=O)N[C@@H]2C(=O)N3C(C(=O)O)=CCS[C@H]23)cs1 [Ceftibuten]	32.5%
CCN(CC)CCNC(=O)c1cc(Br)c(N)cc1OC [Bromopride]	79.7%
OC(CCN1CCCCC1)(c1ccccc1)c1ccccc1 [Pridinol methanesulfonate salt]	79.2%
CCCCC(=O)N(Cc1ccc(-c2ccccc2-c2nnn[nH]2)cc1)[C@H](C(=O)O)C(C)C [Valsartan]	33.8%
CC(C)NNC(=O)c1ccncc1 [Iproniazide phosphate]	57.7%
O=C1c2cccc(O)c2C(=O)c2c(O)cccc21 [1,8-Dihydroxyanthraquinone]	7.91%
O=C(O)CCC(=O)c1ccc(-c2ccccc2)cc1 [Fenbufen]	31.6%
N[C@@H](Cc1ccc(O)c(O)c1)C(=O)O [Levodopa]	46.3%
CN1CCN2c3ccccc3Cc3ccccc3C2C1 (centres undefined) [Mianserine hydrochloride]	32.3%
O=C(NC(Cc1cc(=O)[nH]c2ccccc12)C(=O)O)c1ccc(Cl)cc1 (centres undefined) [Rebamipide]	79%
Nc1ncn(C2OC(CO)C(O)C2O)c(=O)n1 (centres undefined) [Azacytidine-5]	31.9%
C[N+](C)(C)CCOC(N)=O [Carbachol]	57.4%
CC(C)(C)NC[C@H](O)COc1cccc2c1CCCC2=O [(-) -Levobunolol hydrochloride]	66%
